# Values quoted from earlier work as cited in patent US20150057180A1, “Methods and Kits for Analyzing Biomarkers in a Signal Transduction Pathway” (BioScale, Inc., priority 2012, published 2015).
# At least one structure is not confirmed: it was looked up by name or label, or the drawing left a doubt.
# Legend:
# [1] = system: advanced melanoma; settings: patients with advanced melanoma who were treated; cited from earlier work
# [2] = system: melanoma cells lines; settings: by interrupting the B-Raf/MEK/Erk pathway; cited from earlier work
smiles,measurement,setting,value
"CCCS(=O)(=O)Nc1ccc(F)c(C(=O)c2c[nH]c3ncc(-c4ccc(Cl)cc4)cc23)c1F [vemurafenib, Vemurafenib]",increase of survival time (on average),[1],about six months
same,reduction of the number of cancer cells,[1],over half of the patients
same,programmed cell death (apoptosis),[2],causes programmed cell death
